Experimental data: PubChem BioAssay AID1259308 (NCATS, 2017)

Test: 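Genes whose loss raises luciferase production in HEK293 cells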 (primary screen)
System: human HEK293 embryonic kidney cells stably expressing firefly luciferase (HEK-CMV-Luc2-Hygro)
Knock-down reagent: single siRNA against human genes, 0.8 pmol siRNA per well
Time to read-out: 72 h
Measurement: 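Luciferase light (ONE-Glo) measured on one replicate plate set and viability (CellTiter-Glo) on the other, scaled to a negative control siRNA, with robust z-scores and luciferase per cell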
Scale: total luciferase, z-score: higher = more reporter protein produced
Call rule: 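Active when the median/MAD z-score for overall luciferase is greater than 3; a gene was taken forward for validation with new siRNAs if at least two of its three siRNAs passed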
Calls: active = raised luciferase; inactive = no rise
This is an unselected part of about 59,000 reagents tested. Of all reagents, about 1,510 (2.6%) were called active. 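Calls use total luciferase alone and ignore viability, so some active siRNAs may act by altering cell number.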 A number with no mark means an inactive call. The numbers tell different reagents against one gene apart. Not all columns of the deposit are shown.

total luciferase, z-score, by gene and reagent
HDAC1: #1 -0.627; #2 1.83; #3 -0.722
EBP: #1 -1.05; #2 0.0876; #3 -0.903
ZNF839: #1 0.157; #2 1.49; #3 1.48
TMEM40: #1 -0.517; #2 0.242; #3 0.167
DNAH14: #1 4.42 (active); #2 -0.981; #3 -0.893; #4 0.109; #5 -0.396; #6 -1.17
C11orf24: #1 1.71; #2 5.48 (active); #3 0.677
KRTAP1-5: #1 -1.09; #2 -0.5; #3 0.391
